These results are taken from the supplement of paper PMC7666118.

The chains behind the UniProt entries cited, without tags or fusion partners. Where a name states a change or a piece, a line headed by the entry shows the natural chain unless it says otherwise.
UniProt Q9UP52: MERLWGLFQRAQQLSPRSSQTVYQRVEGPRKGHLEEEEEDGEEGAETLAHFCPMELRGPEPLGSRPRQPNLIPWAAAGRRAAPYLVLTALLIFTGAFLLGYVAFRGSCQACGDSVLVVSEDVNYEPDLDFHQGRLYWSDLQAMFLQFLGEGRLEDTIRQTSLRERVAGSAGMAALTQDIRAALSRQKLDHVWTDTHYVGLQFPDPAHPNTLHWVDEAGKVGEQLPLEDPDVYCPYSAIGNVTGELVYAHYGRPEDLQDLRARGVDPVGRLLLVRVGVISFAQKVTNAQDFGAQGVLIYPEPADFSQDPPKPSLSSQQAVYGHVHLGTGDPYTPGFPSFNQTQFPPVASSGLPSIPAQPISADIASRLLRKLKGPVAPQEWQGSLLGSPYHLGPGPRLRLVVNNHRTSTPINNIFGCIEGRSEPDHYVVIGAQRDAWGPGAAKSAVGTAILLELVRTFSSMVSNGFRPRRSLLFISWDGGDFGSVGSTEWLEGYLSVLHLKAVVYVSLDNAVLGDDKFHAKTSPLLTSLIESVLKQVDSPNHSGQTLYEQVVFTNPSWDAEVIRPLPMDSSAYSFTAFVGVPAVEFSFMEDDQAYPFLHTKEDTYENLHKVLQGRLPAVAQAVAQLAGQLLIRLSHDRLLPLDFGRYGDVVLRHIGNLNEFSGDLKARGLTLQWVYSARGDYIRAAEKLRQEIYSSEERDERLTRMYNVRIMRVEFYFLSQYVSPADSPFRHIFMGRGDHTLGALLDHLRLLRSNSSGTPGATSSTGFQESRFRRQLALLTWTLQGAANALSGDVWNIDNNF
UniProt Q9HD45: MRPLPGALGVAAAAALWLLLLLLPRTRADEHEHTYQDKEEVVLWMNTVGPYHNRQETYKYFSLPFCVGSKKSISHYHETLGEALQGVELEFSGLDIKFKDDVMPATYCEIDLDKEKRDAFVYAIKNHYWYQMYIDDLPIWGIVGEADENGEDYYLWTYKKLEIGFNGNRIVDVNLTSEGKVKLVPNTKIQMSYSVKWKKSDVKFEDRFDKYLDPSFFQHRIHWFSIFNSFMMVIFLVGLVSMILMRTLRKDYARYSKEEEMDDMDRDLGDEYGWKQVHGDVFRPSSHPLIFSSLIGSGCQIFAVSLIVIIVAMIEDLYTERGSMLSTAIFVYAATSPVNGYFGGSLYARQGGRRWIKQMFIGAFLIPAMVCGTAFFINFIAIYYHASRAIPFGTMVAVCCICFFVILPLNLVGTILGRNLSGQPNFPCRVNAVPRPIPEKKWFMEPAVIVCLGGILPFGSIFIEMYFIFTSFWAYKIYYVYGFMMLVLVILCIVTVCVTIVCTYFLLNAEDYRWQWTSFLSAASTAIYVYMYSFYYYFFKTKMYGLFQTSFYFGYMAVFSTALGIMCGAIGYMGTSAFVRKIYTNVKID
UniProt Q13488, whole entry: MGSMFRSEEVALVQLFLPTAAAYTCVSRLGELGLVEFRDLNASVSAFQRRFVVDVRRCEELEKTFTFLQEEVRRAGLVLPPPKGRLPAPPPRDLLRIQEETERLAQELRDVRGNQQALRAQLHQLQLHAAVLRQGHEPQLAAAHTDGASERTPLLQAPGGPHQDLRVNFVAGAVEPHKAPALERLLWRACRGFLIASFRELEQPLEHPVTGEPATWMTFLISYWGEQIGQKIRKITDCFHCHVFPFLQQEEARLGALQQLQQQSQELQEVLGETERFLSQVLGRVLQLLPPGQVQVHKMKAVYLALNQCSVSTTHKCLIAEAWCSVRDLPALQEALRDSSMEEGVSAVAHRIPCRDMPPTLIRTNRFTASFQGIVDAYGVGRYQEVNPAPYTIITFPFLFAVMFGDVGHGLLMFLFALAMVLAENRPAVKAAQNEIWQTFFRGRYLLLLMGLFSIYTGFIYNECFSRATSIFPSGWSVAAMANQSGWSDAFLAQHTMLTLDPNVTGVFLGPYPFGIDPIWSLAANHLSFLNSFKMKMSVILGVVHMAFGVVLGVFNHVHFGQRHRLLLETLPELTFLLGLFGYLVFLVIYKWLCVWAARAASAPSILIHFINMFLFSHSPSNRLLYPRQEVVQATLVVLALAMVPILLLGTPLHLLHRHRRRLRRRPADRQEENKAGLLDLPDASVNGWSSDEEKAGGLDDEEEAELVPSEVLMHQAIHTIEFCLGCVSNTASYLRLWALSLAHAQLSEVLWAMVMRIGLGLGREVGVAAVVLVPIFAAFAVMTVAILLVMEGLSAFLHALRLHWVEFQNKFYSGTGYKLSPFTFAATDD
UniProt Q16594, whole entry: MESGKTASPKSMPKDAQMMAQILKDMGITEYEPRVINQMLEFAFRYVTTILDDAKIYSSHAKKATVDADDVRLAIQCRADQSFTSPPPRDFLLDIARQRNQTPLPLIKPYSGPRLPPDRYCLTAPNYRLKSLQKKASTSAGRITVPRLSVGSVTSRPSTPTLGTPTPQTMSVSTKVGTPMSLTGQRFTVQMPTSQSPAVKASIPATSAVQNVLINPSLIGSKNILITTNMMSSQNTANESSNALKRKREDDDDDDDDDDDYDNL
UniProt Q9H7E2: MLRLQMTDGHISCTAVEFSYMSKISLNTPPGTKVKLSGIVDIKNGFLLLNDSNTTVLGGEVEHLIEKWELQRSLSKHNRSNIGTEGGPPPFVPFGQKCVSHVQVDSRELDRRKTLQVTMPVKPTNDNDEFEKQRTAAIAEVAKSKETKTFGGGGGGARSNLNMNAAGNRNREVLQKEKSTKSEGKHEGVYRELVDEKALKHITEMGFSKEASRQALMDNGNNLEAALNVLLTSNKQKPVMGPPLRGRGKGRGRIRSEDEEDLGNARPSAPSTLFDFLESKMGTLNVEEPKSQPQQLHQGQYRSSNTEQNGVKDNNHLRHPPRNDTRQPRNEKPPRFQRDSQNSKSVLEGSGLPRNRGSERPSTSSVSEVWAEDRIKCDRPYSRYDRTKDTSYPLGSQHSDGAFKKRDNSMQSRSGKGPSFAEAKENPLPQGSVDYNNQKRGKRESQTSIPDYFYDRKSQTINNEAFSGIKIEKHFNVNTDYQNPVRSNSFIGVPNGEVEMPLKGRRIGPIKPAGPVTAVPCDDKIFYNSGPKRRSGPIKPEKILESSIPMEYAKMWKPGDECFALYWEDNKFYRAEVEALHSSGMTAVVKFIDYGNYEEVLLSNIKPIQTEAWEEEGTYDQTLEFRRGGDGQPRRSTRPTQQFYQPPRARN
UniProt Q9BRN9: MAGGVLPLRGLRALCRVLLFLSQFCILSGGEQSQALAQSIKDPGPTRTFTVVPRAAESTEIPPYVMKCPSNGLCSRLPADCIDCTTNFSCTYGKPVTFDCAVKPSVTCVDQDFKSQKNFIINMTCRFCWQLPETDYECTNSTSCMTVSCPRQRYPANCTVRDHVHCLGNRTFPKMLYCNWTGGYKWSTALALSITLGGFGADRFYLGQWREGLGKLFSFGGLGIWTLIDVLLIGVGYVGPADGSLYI
UniProt Q9NS93: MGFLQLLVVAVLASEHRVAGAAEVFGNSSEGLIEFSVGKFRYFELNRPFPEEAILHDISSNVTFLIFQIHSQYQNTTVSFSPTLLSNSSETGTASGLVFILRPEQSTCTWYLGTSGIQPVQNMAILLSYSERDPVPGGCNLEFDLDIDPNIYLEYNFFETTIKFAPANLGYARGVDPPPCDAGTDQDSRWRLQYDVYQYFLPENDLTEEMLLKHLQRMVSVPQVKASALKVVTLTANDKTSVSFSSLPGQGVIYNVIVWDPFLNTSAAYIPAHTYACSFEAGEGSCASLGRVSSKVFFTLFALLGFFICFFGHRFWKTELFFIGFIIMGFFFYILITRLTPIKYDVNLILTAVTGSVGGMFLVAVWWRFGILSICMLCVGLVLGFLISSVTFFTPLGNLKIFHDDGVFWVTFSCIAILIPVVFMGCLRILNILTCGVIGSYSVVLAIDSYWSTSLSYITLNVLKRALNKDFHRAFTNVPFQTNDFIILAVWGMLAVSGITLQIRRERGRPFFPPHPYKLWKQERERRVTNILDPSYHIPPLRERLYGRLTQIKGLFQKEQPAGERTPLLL
UniProt O14925: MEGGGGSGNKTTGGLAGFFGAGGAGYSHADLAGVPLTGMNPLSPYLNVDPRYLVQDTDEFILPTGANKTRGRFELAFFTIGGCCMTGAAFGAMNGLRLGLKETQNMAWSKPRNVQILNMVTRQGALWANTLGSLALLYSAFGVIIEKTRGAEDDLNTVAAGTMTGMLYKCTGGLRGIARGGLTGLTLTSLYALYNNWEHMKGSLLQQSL
UniProt O96008: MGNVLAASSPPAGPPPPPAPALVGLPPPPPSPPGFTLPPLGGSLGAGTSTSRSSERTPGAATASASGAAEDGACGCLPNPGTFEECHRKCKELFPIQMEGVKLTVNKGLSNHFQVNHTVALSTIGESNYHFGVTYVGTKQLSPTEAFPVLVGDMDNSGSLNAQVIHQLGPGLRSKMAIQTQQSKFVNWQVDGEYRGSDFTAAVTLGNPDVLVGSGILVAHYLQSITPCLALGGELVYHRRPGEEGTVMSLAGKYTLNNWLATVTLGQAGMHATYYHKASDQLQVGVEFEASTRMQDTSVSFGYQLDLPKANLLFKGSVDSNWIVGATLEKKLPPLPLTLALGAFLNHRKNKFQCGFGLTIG
UniProt Q86XT9, whole entry: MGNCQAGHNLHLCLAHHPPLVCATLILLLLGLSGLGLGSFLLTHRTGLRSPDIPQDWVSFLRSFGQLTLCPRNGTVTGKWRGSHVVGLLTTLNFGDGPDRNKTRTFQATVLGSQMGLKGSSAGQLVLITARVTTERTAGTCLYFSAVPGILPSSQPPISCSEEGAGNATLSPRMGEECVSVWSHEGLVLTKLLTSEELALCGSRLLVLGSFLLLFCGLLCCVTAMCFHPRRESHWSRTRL
UniProt Q96K49: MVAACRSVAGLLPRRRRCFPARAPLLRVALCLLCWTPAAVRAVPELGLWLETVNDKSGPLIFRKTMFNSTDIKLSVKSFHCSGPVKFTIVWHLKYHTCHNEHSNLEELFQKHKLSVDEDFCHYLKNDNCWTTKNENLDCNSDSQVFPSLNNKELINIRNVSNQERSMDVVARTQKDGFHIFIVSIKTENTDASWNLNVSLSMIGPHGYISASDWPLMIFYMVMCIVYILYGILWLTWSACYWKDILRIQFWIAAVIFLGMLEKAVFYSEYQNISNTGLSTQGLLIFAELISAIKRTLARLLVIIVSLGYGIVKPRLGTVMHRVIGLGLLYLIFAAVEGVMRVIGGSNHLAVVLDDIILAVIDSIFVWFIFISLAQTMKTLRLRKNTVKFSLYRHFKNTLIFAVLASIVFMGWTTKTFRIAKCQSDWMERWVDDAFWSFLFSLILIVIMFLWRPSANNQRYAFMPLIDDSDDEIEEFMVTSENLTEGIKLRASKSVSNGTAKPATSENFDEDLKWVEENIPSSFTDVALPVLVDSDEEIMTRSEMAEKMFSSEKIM
UniProt Q15554: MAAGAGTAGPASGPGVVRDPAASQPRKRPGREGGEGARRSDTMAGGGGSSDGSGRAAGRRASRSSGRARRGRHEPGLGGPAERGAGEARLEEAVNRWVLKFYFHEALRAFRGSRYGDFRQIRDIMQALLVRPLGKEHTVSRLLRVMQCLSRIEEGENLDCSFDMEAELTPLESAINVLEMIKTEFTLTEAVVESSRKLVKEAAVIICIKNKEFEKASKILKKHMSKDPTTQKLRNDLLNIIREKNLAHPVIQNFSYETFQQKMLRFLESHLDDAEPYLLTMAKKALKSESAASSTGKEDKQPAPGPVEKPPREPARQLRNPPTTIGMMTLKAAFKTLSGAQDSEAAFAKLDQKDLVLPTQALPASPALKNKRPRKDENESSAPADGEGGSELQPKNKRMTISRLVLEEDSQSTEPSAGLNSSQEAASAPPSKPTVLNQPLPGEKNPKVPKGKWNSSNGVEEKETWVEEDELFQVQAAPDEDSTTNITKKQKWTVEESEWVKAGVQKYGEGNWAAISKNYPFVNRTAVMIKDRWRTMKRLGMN
UniProt Q9UHD2: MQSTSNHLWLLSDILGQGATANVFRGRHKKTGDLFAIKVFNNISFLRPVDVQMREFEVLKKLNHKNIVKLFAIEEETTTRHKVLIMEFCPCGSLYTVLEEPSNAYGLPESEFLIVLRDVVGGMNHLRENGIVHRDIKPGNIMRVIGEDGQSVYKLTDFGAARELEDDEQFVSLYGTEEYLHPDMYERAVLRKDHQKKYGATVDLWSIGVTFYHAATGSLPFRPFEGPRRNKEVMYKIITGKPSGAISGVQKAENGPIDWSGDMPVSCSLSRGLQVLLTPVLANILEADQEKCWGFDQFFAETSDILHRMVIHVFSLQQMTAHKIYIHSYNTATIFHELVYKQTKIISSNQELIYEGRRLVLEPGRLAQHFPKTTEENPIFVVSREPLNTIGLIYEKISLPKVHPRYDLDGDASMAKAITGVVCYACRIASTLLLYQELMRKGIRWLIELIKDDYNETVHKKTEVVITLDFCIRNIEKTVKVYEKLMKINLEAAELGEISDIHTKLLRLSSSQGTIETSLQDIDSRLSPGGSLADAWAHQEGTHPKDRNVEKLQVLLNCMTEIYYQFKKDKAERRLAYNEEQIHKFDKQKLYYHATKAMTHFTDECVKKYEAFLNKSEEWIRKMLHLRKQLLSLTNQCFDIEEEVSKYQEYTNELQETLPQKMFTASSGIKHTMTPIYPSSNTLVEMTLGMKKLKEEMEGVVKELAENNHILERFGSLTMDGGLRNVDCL

Some of the results follow.

Compound in this experiment: COc1ccc(Cn2ccc3ccc(C(=O)NO)cc32)cc1
Put plainly: dose-dependent thermal stabilisation call (2D-TPP, DLPTP, 10% FDR) (binary (1 = stabilised)); higher = stabilised by the compound. Conditions: system: HL-60 intact cells; concentration range 0.04-10 µM.
Consider TFR2 (UniProt Q9UP52), for which the “dose-dependent thermal stabilisation call” value was inactive: 0.
Turning to TM9SF3 (UniProt Q9HD45), the “dose-dependent thermal stabilisation call” value is inactive: 0.
Take TCIRG1 (UniProt Q13488): the “dose-dependent thermal stabilisation call” value is inactive: 0.
In the case of TAF9 (UniProt Q16594), the “dose-dependent thermal stabilisation call” value was inactive: 0.
Consider TMEM70 (UniProt Q9BUB7), for which the “dose-dependent thermal stabilisation call” value is inactive: 0.
Consider TDRD3 (UniProt Q9H7E2), for which the “dose-dependent thermal stabilisation call” value is inactive: 0.
To TM2D3 (UniProt Q9BRN9) belongs inactive: 0.
Turning to TM7SF3 (UniProt Q9NS93), the “dose-dependent thermal stabilisation call” value is active: 1.
With TMEM135 (UniProt Q86UB9), the “dose-dependent thermal stabilisation call” value was inactive: 0.
For the target TESC (UniProt Q96BS2), the “dose-dependent thermal stabilisation call” value is inactive: 0.
To TIMM23 (UniProt O14925) belongs inactive: 0; to TCEA2 (UniProt Q15560), inactive: 0; to TMEM214 (UniProt Q6NUQ4), inactive: 0.
As for TOMM40 (UniProt O96008), the figure is inactive: 0; as for TMEM219 (UniProt Q86XT9), inactive: 0.
Turning to TM7SF2 (UniProt O76062), the “dose-dependent thermal stabilisation call” value is inactive: 0.
For TMEM9B (UniProt Q9NQ34), the “dose-dependent thermal stabilisation call” value is inactive: 0.
For TMEM87B (UniProt Q96K49), the “dose-dependent thermal stabilisation call” value was inactive: 0.
In the case of TMCO3 (UniProt Q6UWJ1), the “dose-dependent thermal stabilisation call” value is inactive: 0.
TOPBP1 (UniProt Q92547): the “dose-dependent thermal stabilisation call” value was inactive: 0.
For the target TBL2 (UniProt Q9Y4P3), the “dose-dependent thermal stabilisation call” value is inactive: 0.
To TMEM189-UBE2V1 (UniProt A5PLL7) belongs inactive: 0; to TMED2 (UniProt Q15363), inactive: 0.
For TINP1 (UniProt O95478), the “dose-dependent thermal stabilisation call” value was inactive: 0.
On to TERF2 (UniProt Q15554), for which the “dose-dependent thermal stabilisation call” value was inactive: 0.
As for TBK1 (UniProt Q9UHD2), the “dose-dependent thermal stabilisation call” value was active: 1.
